PubChem BioAssay AID652243 – Drosophila RNAi Screening Center – 2013
Test: 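Fly genes required for human androgen receptor driven transcription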 (primary screen). Cell system: Drosophila S2R+ cells. Reagents: long dsRNA against Drosophila genes. Timing: 72 h (48 h, then 24 h hormone). Conditions: synthetic androgen R1881 at 10 nM for 24 h. Measured: 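Per-well raw luminescence of the androgen-driven firefly reporter and of the Renilla control, two replicates each, without normalisation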. Reading the numbers: firefly reporter light: higher = more light from androgen-responsive reporter; Renilla control light: higher = more constitutive control signal (cell number, transfection). Call rule: 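Across duplicate plates, a knock-down whose log firefly/Renilla ratio shifted a set fold down or up from the GFP/LacZ control mean was a hit; the downward cut appears as both 1.5 and 3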. Calls: active = hit: reporter lowered or raised; inactive = no hit.
The screen tested about 24,000 reagents; below is a random part of those that have a named target and a result. Of all reagents, 246 (1%) are marked active. 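Plates not normalised; calls are printed but the firefly/Renilla ratio behind them is not deposited; fold cut for lowering reported inconsistently.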 Raw values are not corrected between plates. Not stated in the record: the amount of reagent.

| gene | DRSC id | firefly reporter light, replicate 1 | firefly reporter light, replicate 2 | Renilla control light, replicate 1 | Renilla control light, replicate 2 | Call |
| --- | --- | --- | --- | --- | --- | --- |
| CG15209 | DRSC19655 | 2.58e5 | 2.70e5 | 3.86e6 | 3.96e6 | inactive |
| PIG-L | DRSC15577 | 2.75e5 | 2.71e5 | 2.91e6 | 3.09e6 | inactive |
| PIG-L | DRSC24921 | 8.63e5 | 7.04e5 | 1.15e6 | 9.70e5 | inactive |
| bowl | DRSC00805 | 4.92e5 | 7.00e5 | 7.24e5 | 7.87e5 | inactive |
| bowl | DRSC28379 | 9.26e5 | 7.95e5 | 1.46e6 | 1.36e6 | inactive |
| CG14995 | DRSC22991 | 1.14e6 | 1.27e6 | 1.58e6 | 2.01e6 | inactive |
| CG42814 | DRSC15940 | 76935 | 82415 | 1.26e6 | 1.47e6 | inactive |
| Sf3b5 | DRSC14460 | 2.34e5 | 2.17e5 | 3.09e6 | 3.04e6 | inactive |
| CG5909 | DRSC15914 | 1.04e5 | 1.41e5 | 1.79e6 | 2.37e6 | inactive |
| CG5909 | DRSC27750 | 5.34e5 | 5.54e5 | 8.30e5 | 9.13e5 | inactive |
| Ndfip | DRSC11201 | 60803 | 43940 | 3.44e5 | 3.26e5 | inactive |
| CG44836 | DRSC09915 | 2.60e5 | 1.91e5 | 2.05e6 | 1.92e6 | inactive |
| CG44836 | DRSC26572 | 2.60e5 | 2.13e5 | 6.24e5 | 6.29e5 | inactive |
| msopa | DRSC23240 | 6.91e5 | 7.70e5 | 1.67e6 | 1.14e6 | inactive |
| CG9961 | DRSC00738 | – | – | – | – | inactive |
| CG9961 | DRSC23343 | 7.14e5 | 9.01e5 | 1.85e6 | 2.19e6 | inactive |
| CG9961 | DRSC25842 | 5.02e5 | 4.56e5 | 7.92e5 | 8.60e5 | inactive |
| CG1074 | DRSC12143 | 4.43e5 | 5.10e5 | 1.74e6 | 1.54e6 | inactive |
| CG1074 | DRSC29045 | 6.50e5 | 5.54e5 | 1.72e6 | 1.42e6 | inactive |
| CG13607 | DRSC14610 | 2.70e5 | 3.05e5 | 3.11e6 | 2.90e6 | inactive |
| CG4452 | DRSC10422 | 1.60e6 | 1.39e6 | 1.58e6 | 1.70e6 | inactive |
| CG8405 | DRSC05599 | 2.07e5 | 2.62e5 | 3.33e5 | 3.35e5 | inactive |
| CG8405 | DRSC07166 | 60151 | 1.21e5 | 1.38e6 | 1.38e6 | inactive |

Look-ups from the list:
bowl [DRSC28379], firefly reporter light, replicate 2 → 7.95e5
Result of CG42814 [DRSC15940] in “firefly reporter light, replicate 2”: 82415
For “Renilla control light, replicate 1”, CG1074 [DRSC29045] reads 1.72e6

The listing continues:
| gene | DRSC id | firefly reporter light, replicate 1 | firefly reporter light, replicate 2 | Renilla control light, replicate 1 | Renilla control light, replicate 2 | Call |
| --- | --- | --- | --- | --- | --- | --- |
| Nurf-38 | DRSC04629 | 2.24e5 | 1.47e5 | 1.25e6 | 1.07e6 | inactive |
| Nurf-38 | DRSC26858 | 3.19e5 | 2.91e5 | 1.17e6 | 5.64e5 | inactive |
| CG1662 | DRSC19754 | 96770 | 1.23e5 | 1.00e6 | 1.07e6 | inactive |
| Pxn | DRSC08685 | 5.60e5 | 6.16e5 | 1.51e6 | 1.73e6 | inactive |
| Pxn | DRSC27895 | 4.88e5 | 4.35e5 | 1.25e6 | 1.08e6 | inactive |
| Proc | DRSC22998 | 6.35e5 | 9.43e5 | 3.58e5 | 5.82e5 | inactive |
| CG15483 | DRSC02493 | 2.46e5 | 2.95e5 | 1.73e6 | 1.73e6 | inactive |
| TpnC25D | DRSC02965 | 60571 | 59112 | 9.15e5 | 8.14e5 | inactive |
| TpnC25D | DRSC24524 | 1.50e5 | 1.75e5 | 5.54e5 | 3.71e5 | inactive |
| CG18596 | DRSC15355 | 53408 | 78503 | 4.83e5 | 4.91e5 | inactive |
| CG4000 | DRSC15535 | 1.96e5 | 1.14e5 | 1.74e6 | 1.56e6 | inactive |
| CG4000 | DRSC21547 | 5.16e5 | 6.21e5 | 1.83e6 | 1.76e6 | inactive |
| CG4000 | DRSC25094 | 8.42e5 | 9.66e5 | 1.18e6 | 1.01e6 | inactive |
| CG4763 | DRSC04009 | 1.18e5 | 1.90e5 | 2.00e5 | 2.61e5 | inactive |
| CG4763 | DRSC04487 | 3.02e5 | 3.08e5 | 1.79e6 | 1.34e6 | inactive |
| hiro | DRSC08564 | 1.59e6 | 1.37e6 | 2.69e6 | 2.32e6 | inactive |
| hiro | DRSC29780 | 4.09e5 | 3.66e5 | 1.30e6 | 1.49e6 | inactive |
